The experiment deals with full-length human PD-L1 on K562 cells (human) (UniProt Q9NZQ7). Put plainly: FACS on K562 cells expressing human PD-L1, scFv titrated.

The chains behind the UniProt entries cited, without tags or fusion partners. Where a name states a change or a piece, a line headed by the entry shows the natural chain unless it says otherwise.
UniProt Q9NZQ7: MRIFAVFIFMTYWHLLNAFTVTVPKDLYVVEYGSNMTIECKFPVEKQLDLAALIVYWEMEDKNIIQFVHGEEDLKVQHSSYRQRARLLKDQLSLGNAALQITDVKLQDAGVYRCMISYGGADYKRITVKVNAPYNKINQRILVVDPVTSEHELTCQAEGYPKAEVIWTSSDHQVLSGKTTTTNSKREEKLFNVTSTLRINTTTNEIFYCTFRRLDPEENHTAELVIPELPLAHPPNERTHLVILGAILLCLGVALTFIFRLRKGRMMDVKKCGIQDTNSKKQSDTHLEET

These are yes or no findings as the source states them, for the method shown. Some entries that bind do so weakly or less than the wild type.

This passage reports binding results from patent publication US20250340646A1.

B1: 2018EP173-H11 scFv (scFv, V domains shown, not shown: small tags and cut ends)
VH: QVQLVQSGGGLVKPGGSLRLSCAASGFTFSSYSMNWVRQAPGKGLEWVSSISSSSSYIYYADSVKGRFTISRDNAKNSLYLQMNSLKAEDTAVYYCARDSLQWLALDYWGQGTLVTVSS
VL: QPVLTQPPSVSVAPGETATITCGGNNIGRKSVHWYLQKPGQAPVLVIGHDTDRPSGIPARFSGSNSGNTATLTINRVEAGDEADYYCQVWDTSGHHYVFGTGTKVTVL
With B1, the binding entry was “binds”.

B2: 2018EP280-E01 scFv (scFv, V domains shown, not shown: small tags and cut ends)
VH: EVQLVESGGGLVKPGGSLRLSCAASGLTFSNAWMSWVRQAPGKGLEWVGRIKSKTDGGTTEYAAPVKGRFTISRDDSKNTLYLQMSSLKTEDTAVYYCTIVYYYDSSGPVFFQHWGQGTLVTVSS
VL: QSVLTQPPSASATPGQRVTISCSGSDSNIATNYVYWYQQFPGTAPKLLIYRNHQRPSGVPDRFSGSRSGTSASLAISGLRSEDEADYYCATWDDSVNSWVFGGGTKLTVL
With B2, the binding entry is given as “binds”.
